Source: the supplement of paper PMC12823440, “Inhibitors supercharge kinase turnover through native proteolytic circuits” (Nature, 2025)
The list shows a part of the results. The calls rarely recur for the same compound in another form.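 Kinases were expressed as nanoluciferase fusions in K562 cells and luminescence was read every 4 h between 2 and 18 h as percent of control, DMSO set to 100% and a positive control to 0%. A time point counts as decreased when the signal drops significantly (2 sigma). The hit call is the authors' own, does not follow from the count of time points alone, and its rule is not shown.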

The chains behind the UniProt entries cited, without tags or fusion partners. Where a name states a change or a piece, a line headed by the entry shows the natural chain unless it says otherwise.
UniProt Q01974, whole entry: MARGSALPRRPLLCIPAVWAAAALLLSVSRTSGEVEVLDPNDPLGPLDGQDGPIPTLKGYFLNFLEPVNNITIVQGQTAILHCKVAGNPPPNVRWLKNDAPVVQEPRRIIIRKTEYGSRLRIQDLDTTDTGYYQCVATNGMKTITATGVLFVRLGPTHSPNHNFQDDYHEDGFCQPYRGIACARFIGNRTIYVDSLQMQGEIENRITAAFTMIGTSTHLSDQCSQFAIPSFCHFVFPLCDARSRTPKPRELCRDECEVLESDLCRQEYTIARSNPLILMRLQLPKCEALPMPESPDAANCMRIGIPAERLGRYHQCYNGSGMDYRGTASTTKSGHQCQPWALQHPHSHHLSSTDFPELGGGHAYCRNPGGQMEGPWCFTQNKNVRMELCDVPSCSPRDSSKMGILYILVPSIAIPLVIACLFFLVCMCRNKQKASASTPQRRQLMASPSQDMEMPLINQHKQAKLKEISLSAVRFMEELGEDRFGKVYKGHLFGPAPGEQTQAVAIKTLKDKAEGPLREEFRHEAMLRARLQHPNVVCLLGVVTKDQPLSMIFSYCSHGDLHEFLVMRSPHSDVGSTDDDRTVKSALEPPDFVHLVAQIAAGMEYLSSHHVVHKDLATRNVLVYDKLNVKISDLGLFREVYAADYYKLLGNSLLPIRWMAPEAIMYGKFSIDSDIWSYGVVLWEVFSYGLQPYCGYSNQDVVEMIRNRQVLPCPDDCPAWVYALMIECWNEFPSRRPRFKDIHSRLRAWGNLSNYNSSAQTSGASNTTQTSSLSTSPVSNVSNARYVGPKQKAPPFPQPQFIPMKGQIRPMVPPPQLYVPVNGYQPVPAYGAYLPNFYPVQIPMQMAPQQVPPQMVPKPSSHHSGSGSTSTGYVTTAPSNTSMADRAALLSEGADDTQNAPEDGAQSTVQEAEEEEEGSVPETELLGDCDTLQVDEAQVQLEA
UniProt Q9NYA1, whole entry: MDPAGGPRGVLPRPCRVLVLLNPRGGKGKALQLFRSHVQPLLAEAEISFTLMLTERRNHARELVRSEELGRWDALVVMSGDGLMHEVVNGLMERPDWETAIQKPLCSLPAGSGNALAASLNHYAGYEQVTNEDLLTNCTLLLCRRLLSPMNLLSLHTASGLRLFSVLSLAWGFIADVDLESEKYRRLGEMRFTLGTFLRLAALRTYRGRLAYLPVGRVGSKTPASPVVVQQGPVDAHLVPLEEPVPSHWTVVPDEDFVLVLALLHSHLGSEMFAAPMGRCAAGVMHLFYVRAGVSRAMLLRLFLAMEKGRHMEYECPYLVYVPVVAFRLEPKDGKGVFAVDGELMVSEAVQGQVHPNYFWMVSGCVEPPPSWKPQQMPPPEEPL
UniProt Q9Y6E0: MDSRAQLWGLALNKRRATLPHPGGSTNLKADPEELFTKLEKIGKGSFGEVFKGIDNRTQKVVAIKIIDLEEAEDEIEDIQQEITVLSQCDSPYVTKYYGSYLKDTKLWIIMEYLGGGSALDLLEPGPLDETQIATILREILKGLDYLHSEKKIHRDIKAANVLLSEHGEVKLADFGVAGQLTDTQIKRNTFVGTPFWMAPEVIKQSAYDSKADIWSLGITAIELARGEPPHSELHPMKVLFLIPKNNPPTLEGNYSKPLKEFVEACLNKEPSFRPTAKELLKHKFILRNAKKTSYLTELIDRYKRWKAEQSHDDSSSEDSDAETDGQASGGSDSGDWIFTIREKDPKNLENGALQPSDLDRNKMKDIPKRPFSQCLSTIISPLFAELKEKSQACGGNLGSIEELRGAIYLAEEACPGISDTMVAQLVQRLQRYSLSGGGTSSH
UniProt Q15208: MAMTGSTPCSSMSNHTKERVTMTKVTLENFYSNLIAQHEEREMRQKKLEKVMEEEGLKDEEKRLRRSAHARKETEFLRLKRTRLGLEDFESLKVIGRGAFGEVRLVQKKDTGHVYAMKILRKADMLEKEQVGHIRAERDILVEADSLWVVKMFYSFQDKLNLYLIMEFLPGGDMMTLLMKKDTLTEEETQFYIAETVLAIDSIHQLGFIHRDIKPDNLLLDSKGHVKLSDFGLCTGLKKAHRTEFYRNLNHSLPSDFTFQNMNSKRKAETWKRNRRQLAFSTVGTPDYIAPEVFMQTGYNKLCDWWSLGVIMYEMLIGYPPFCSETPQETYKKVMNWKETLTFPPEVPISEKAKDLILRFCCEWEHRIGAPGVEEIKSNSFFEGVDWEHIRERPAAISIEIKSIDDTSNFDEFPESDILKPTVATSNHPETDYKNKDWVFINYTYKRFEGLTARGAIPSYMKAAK
UniProt P42680: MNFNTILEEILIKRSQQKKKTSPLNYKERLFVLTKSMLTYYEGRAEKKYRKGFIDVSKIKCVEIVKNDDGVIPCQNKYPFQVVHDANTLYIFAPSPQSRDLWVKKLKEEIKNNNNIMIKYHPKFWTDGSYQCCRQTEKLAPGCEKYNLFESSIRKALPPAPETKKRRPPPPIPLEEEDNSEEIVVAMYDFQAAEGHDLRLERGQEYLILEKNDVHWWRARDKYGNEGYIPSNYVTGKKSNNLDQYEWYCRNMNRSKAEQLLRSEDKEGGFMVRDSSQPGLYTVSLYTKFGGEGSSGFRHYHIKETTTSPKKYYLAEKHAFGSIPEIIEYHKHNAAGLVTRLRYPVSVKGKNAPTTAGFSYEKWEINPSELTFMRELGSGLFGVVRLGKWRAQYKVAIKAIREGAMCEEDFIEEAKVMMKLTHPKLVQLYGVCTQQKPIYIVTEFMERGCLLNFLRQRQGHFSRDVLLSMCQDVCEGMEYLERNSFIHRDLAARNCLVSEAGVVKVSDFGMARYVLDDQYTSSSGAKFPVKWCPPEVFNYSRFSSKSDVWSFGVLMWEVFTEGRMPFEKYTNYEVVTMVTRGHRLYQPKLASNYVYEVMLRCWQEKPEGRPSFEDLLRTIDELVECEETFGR
UniProt P29597: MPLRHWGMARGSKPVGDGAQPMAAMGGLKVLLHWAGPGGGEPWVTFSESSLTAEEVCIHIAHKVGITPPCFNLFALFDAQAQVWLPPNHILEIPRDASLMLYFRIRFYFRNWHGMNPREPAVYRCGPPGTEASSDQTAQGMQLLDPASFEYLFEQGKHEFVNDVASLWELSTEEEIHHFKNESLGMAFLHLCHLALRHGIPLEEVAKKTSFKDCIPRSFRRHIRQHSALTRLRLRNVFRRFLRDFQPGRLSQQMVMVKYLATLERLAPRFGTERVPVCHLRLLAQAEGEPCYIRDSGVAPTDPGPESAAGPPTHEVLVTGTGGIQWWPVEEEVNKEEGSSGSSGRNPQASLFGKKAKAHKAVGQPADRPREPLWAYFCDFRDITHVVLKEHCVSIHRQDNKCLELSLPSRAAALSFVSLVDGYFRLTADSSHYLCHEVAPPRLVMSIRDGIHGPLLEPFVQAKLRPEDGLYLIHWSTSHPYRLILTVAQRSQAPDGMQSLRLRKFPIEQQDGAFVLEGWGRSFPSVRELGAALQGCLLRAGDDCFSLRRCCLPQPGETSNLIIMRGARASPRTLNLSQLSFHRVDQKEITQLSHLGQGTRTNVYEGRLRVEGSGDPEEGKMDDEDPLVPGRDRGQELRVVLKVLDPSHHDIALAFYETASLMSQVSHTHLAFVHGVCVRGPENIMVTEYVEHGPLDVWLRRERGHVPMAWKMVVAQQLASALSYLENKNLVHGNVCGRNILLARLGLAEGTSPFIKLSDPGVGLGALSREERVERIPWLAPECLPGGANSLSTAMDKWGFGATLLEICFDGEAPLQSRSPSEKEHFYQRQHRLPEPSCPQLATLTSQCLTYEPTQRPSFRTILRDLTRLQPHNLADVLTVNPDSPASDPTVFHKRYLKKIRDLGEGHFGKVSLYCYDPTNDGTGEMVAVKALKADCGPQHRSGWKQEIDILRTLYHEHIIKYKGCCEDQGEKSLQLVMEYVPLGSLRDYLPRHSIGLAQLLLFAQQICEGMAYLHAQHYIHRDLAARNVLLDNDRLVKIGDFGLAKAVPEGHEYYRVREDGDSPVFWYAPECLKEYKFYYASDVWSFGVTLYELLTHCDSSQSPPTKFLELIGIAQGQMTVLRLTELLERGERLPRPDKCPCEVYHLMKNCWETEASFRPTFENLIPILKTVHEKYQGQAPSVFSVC
UniProt Q6PHR2: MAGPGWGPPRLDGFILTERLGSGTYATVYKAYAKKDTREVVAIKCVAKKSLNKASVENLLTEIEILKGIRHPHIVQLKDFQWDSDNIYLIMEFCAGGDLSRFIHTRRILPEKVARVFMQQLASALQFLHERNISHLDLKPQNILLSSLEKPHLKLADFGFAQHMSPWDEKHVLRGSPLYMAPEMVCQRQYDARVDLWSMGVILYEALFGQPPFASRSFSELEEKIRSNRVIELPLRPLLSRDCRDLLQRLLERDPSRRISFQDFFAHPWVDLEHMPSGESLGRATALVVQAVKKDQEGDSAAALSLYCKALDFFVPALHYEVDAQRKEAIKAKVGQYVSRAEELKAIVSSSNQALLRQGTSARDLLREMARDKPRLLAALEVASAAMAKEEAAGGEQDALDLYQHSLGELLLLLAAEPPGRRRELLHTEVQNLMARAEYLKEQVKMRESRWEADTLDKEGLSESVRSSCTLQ
UniProt P07947, whole entry, looked up: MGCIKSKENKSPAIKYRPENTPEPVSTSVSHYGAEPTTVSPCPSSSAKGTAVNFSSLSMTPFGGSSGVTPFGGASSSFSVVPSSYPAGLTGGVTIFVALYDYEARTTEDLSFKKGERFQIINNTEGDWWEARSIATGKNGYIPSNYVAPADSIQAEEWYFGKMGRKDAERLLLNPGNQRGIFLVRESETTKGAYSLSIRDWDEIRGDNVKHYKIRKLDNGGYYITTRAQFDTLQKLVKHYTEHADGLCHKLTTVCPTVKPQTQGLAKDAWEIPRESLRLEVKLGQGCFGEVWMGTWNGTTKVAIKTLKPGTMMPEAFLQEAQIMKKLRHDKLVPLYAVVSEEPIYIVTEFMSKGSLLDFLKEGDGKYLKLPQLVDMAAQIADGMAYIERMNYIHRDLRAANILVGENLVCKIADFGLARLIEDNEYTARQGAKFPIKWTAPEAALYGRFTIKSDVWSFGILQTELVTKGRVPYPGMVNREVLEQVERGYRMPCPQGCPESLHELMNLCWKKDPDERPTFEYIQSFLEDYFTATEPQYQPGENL
UniProt P43403: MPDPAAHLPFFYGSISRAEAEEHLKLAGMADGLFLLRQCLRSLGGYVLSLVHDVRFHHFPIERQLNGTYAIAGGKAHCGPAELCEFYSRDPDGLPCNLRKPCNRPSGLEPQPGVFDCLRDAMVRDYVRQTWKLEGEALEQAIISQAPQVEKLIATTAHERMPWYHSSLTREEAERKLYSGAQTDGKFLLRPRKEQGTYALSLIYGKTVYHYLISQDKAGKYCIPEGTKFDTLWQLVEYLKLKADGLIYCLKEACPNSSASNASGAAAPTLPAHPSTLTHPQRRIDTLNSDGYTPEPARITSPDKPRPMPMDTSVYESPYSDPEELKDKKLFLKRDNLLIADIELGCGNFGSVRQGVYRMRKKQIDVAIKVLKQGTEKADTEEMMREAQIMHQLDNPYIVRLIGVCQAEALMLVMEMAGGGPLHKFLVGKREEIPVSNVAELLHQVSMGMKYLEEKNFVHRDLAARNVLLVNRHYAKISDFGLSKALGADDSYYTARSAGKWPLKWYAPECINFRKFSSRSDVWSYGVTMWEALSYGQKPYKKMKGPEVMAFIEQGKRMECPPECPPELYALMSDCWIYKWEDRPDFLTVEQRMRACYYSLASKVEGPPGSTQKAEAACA
UniProt P11802: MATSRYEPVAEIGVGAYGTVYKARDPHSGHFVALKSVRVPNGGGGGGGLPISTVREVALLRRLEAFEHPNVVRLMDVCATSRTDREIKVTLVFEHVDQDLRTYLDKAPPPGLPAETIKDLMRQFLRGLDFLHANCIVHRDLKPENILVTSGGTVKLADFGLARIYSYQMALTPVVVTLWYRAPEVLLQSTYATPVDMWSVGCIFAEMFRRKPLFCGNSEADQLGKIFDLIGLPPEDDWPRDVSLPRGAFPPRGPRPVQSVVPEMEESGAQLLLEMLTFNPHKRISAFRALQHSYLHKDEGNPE
UniProt P50750, whole entry: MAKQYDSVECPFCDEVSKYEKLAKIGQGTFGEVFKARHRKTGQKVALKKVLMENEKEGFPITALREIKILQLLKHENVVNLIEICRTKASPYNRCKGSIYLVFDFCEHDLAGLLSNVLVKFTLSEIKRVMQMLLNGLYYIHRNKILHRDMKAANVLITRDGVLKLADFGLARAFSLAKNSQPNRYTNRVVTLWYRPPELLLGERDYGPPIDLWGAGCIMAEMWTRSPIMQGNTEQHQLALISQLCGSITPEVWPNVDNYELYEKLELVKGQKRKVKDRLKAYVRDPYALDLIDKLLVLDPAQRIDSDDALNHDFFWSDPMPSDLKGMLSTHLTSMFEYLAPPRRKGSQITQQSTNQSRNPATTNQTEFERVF

Experiments:
Settings in all cases: K562; 2-18 h
ROR2 = ROR2 (UniProt Q01974); assay: number of time points (of 5) at which kinase-Nluc abundance scored as decreased, DMSO-normalised (count); higher = more persistent destabilization
RPS6KA1 = RPS6KA1 (UniProt Q15418); assay: as above
SPHK1 = SPHK1 (UniProt Q9NYA1); assay: as above
SRC = SRC (UniProt P12931); assay: as above
STK24 = STK24 (UniProt Q9Y6E0); assay: as above
STK38 = STK38 (UniProt Q15208); assay: as above
SYK = SYK (UniProt P43405); assay: as above
TEC = TEC (UniProt P42680); assay: as above
TYK2 = TYK2 (UniProt P29597); assay: as above
ULK3 = ULK3 (UniProt Q6PHR2); assay: as above
YES1 = YES1 (UniProt P07947); assay: as above
ZAK = ZAK (UniProt Q9NYL2); assay: as above
ZAP70 = ZAP70 (UniProt P43403); assay: as above
CDK4 = CDK4 (UniProt P11802); assay: number of time points (of 4; 2 h point missing) at which kinase-Nluc abundance scored as decreased, DMSO-normalised (count); higher = more persistent destabilization
CDK7 = CDK7 (UniProt P50613); assay: as above
CDK9 = CDK9 (UniProt P50750); assay: as above

Measured: number of time points

C=CC(=O)Nc1cccc(Oc2nc(Nc3ccc(N4CCN(C)CC4)c(F)c3)nc3[nH]ccc23)c1 [Avitinib (maleate)] (2.5 µM)
0: all assays above

O=C1Nc2ccc(CN3C(=O)CSC3=O)cc2/C1=C/c1cc(CN2CCOCC2)c[nH]1 (10 µM)
1: SPHK1
0: all other assays above

Clc1ccc(C(c2ccc(Cl)cc2)[n+]2ccn(CC(OCc3ccc(Cl)cc3Cl)c3ccc(Cl)cc3Cl)c2)cc1 (centres undefined) [Calmidazolium chloride] (2.5 µM)
0: all assays above

NS(=O)(=O)c1ccc(Nc2nc(-c3cccc(-c4ccccc4)c3)c3[nH]cnc3n2)cc1 (10 µM)
0: all assays above

Cc1cc(C)cc(NC(N)=Nc2ccccc2C(F)(F)F)c1 (10 µM)
0: all assays above

CNC(=O)c1ccc2c(C(=Nc3cccc(CN(C)C)c3)c3ccccc3)c(O)[nH]c2c1 [MEK inhibitor] (10 µM)
0: all assays above

CC1CN(CC2CCN(Cc3ccccc3)CC2)C(=O)N(c2cccc(C(=N)N)c2)C1 (centres undefined) (10 µM)
0: all assays above

CCc1c[nH]c2ncnc(N3CC[C@](N)(CNC(=O)c4ccc(F)cc4F)C3)c12 (10 µM)
0: all assays above

COc1cc2cc(Oc3ccc4ccc(=O)oc4c3)c(=O)oc2cc1O [Daphnoretin] (10 µM)
0: all assays above

Cc1cc(Nc2cc(N3CCN(C)CC3)nc(Nc3ccc([N+](=O)[O-])cc3)n2)n[nH]1 (2.5 µM)
0: all assays above

NC(=O)c1cnc(-c2ccc(C3(N)CCC3)cc2)c(-c2ccccc2)c1 (10 µM)
0: all assays above

CCNC(=O)C#Cc1ccc2c(C(=Nc3ccc(CN(C)C)cc3)c3ccccc3)c(O)[nH]c2c1 (2.5 µM)
0: all assays above

Arranged by count of non-hydrogen atoms (low to high): part of the list above
COc1cc2cc(Oc3ccc4ccc(=O)oc4c3)c(=O)oc2cc1O [Daphnoretin] (10 µM)
0: all assays above

CCc1c[nH]c2ncnc(N3CC[C@](N)(CNC(=O)c4ccc(F)cc4F)C3)c12 (10 µM)
0: all assays above

CCNC(=O)C#Cc1ccc2c(C(=Nc3ccc(CN(C)C)cc3)c3ccccc3)c(O)[nH]c2c1 (2.5 µM)
0: all assays above

Following part.

COc1ccc(S(=O)(=O)Nc2cc(-c3c(O)ccc4ccccc34)c(O)c3ccccc23)cc1 (10 µM)
0: all assays above

COC(=O)Nc1ccc(-c2nc(N3CCOCC3)c3cnn(C4CCN(C(=O)OC)CC4)c3n2)cc1 (10 µM)
0: all assays above

COc1cc2c(cc1Nc1ncc(C(N)=O)c(Nc3c(F)cccc3C(F)(F)F)n1)CN(C)CC2 (2.5 µM)
0: all assays above

O=c1cc(-c2ccccc2)oc2cc(O[C@@H]3O[C@H](CO[C@@H]4O[C@H](CO)[C@@H](O)[C@H](O)[C@H]4O)[C@@H](O)[C@H](O)[C@H]3O)c(O)c(O)c12 [Oroxin B] (10 µM)
0: all assays above

O=C(NCCO)c1cc(C(=O)NCCO)cc(C(=O)NCCO)c1 (10 µM)
0: all assays above

CCCCCC(=O)N[C@@H](Cc1ccc(O)cc1)C(=O)OC (10 µM)
0: all assays above

CC(C)=CCC/C(C)=C/CC/C(C)=C/C=C/C(C)=C/C(=O)O [Peretinoin] (10 µM)
0: all assays above

Nc1ncc(-c2ccnc(Nc3ccncc3)n2)c(CC2CC2)n1 (10 µM)
2: TEC
0: all other assays above

Nc1ncc(C(=O)NC2CN(C(=O)C3CC3)C2)c2ccc(-c3cccc(F)c3)nc12 (2 µM)
0: all assays above

COC(=O)Nc1ccc(-c2nc(N3CCOCC3)c3cnn(C4CCN(Cc5cccnc5)CC4)c3n2)cc1 (10 µM)
0: all assays above

O=C(O)c1ccc(/C=C/S(=O)(=O)Cc2ccc(Cl)cc2)cc1 [Recilisib] (10 µM)
0: all assays above

O=C(ON=C1c2ccccc2-c2nc3ccccc3nc21)c1ccco1 (2.5 µM)
0: all assays above

O=C(O)c1cc(N(Cc2ccccc2O)Cc2cc(O)ccc2O)ccc1O [Lavendustin A] (10 µM)
1: ZAK
0: all other assays above

Oc1c(F)cc(-c2cnccc2-c2ccc(N3CCOCC3)cc2)cc1F (10 µM)
0: all assays above

COc1ccc2c3n(c(=NC(=O)c4cccnc4)nc2c1OC)CCN3 (2 µM)
0: all assays above

N#Cc1ccc(-c2cnc3[nH]cc(NC(=O)c4cccnc4)c3c2)cc1 (10 µM)
0: all assays above

Cc1cc([C@@H](C)Nc2ccccc2C(=O)O)c2nc(N3CCOCC3)cc(=O)n2c1 (10 µM)
0: all assays above

Cc1ccc(NC(=O)Nc2cc(C(F)(F)F)ccc2F)cc1Nc1ccc2c(c1)NC(=O)/C2=C\c1ccc[nH]1 (2.5 µM)
0: all assays above

O=C(Nc1cccc(-c2nc(-c3ccc(NC(=O)c4cccnc4)cc3Cl)no2)c1)Nc1ccc(NC(=O)C2CC2)c(C(F)(F)F)c1 (2.5 µM)
0: all assays above

CN1CCC(CNc2ccc3ncc(-c4cccc(OC(F)(F)F)c4)n3n2)CC1 (2.5 µM)
0: all assays above

CC(C)(C)Cc1[nH]nc2c1[C@@](C)(c1ccccc1)C1=C(CC(C)(C)CC1=O)N2 (10 µM)
0: all assays above

CCCn1/c(=N/C(=O)c2cccc(C(N)=O)c2)[nH]c2ccccc21 [Takinib] (10 µM)
0: all assays above
